Laboratory results published in the supplement of paper PMC4604168 (melanoma cell lines).
The list shows a part of the results. Many values rest on one well or one pass, so single values are uncertain.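 Imaging used 1,536-well plates; nuclei positive for cleaved PARP by antibody were divided by total DNA-stained nuclei to yield the apoptosis fraction. Doses for screening kept most cells viable, and cell lines differ markedly in resting and induced cleaved-PARP levels.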

Assays:
Test in all cases: cleaved PARP positive nuclei fraction relative to DMSO control; melanoma cells; higher = more apoptosis
Conditions in all cases: library dose: low library concentration; 72 h
COLO792 = system: COLO792
COLO800 = system: COLO800
COLO829 = system: COLO829
G361 = system: G361
IPC-298 = system: IPC-298
IST-MEL1 = system: IST-MEL1
LB2518-MEL = system: LB2518-MEL
LOXIMVI = system: LOXIMVI

Row | SMILES | cleaved PARP positive nuclei fraction (COLO792) | cleaved PARP positive nuclei fraction (COLO800) | cleaved PARP positive nuclei fraction (COLO829) | cleaved PARP positive nuclei fraction (G361) | cleaved PARP positive nuclei fraction (IPC-298) | cleaved PARP positive nuclei fraction (IST-MEL1) | cleaved PARP positive nuclei fraction (LB2518-MEL) | cleaved PARP positive nuclei fraction (LOXIMVI)
1 | CCCCCCCCc1ccc(CCC(N)(CO)CO)cc1 [fingolimod] + c1cc(-c2cnn3cc(-c4ccc(OCCN5CCCCC5)cc4)cnc23)ccn1 [Dorsomorphin] (first compound 2 µM, partner dose 0.4 µM) | 82.2% | 226% | 112% | 87.7% | 44.6% | 89.8% | 79.9% | 67.4%
2 | NC(=O)c1ccc(N(C(N)=O)c2c(F)cccc2F)nc1-c1ccc(F)cc1F + c1cc(-c2cnn3cc(-c4ccc(OCCN5CCCCC5)cc4)cnc23)ccn1 [Dorsomorphin] (first compound 0.4 µM, partner dose 0.4 µM) | 89.3% | 133% | 103% | 70.2% | 48.6% | 28.9% | 66.7% | 247%
3 | C[C@@H](N)c1ccc(C(=O)Nc2ccnc3[nH]ccc23)cc1 + O=S(=O)(c1ccccc1)N(CC(F)(F)F)c1ccc(C(O)(C(F)(F)F)C(F)(F)F)cc1 [T0901317] (first compound 0.4 µM, partner dose 1.4 µM) | 79.9% | 124% | 138% | 101% | 203% | 89.4% | 60.2% | 43.1%
4 | CC1(C)CCC(c2ccc(Cl)cc2)=C(CN2CCN(c3ccc(C(=O)NS(=O)(=O)c4ccc(N[C@H](CCN5CCOCC5)CSc5ccccc5)c(S(=O)(=O)C(F)(F)F)c4)cc3)CC2)C1 + c1cc(-c2cnn3cc(-c4ccc(OCCN5CCCCC5)cc4)cnc23)ccn1 [Dorsomorphin] (first compound 0.4 µM, partner dose 0.4 µM) | 437% | 61.8% | 161% | 171% | 30.4% | 217% | 419% | 37.8%
5 | CC(=O)O[C@@]12CO[C@@H]1C[C@H](O)[C@@]1(C)C(=O)[C@H](O)C3=C(C)[C@@H](OC(=O)[C@H](O)[C@@H](NC(=O)OC(C)(C)C)c4ccccc4)C[C@@](O)([C@@H](OC(=O)c4ccccc4)[C@H]21)C3(C)C [Docetaxel] + COc1cc(N2CCC(N3CCN(C)CC3)CC2)ccc1Nc1ncc(Cl)c(Nc2ccccc2S(=O)(=O)C(C)C)n1 [NVP-TAE684] (first compound 0.0001 µM, partner dose 0.08 µM) | 320% | 210% | 206% | 1120% | 313% | 141% | 193% | 74%
6 | CC(=O)O[C@@]12CO[C@@H]1C[C@H](O)[C@@]1(C)C(=O)[C@H](O)C3=C(C)[C@@H](OC(=O)[C@H](O)[C@@H](NC(=O)OC(C)(C)C)c4ccccc4)C[C@@](O)([C@@H](OC(=O)c4ccccc4)[C@H]21)C3(C)C [Docetaxel] + O=c1cc(-c2cccc3c2Sc2ccccc2S3)oc(N2CCOCC2)c1 [KU55933] (first compound 0.0001 µM, partner dose 1 µM) | 578% | 249% | 148% | 569% | 76.5% | 113% | 200% | 26.9%
7 | CCCCCCCCc1ccc(CCC(N)(CO)CO)cc1 [fingolimod] + Cc1cc([N+](=O)[O-])ccc1NS(=O)(=O)c1cc(Cl)ccc1Cl [FH535] (first compound 2 µM, partner dose 1 µM) | 75% | 63.8% | 25.7% | 93.8% | 49.1% | 172% | 69% | 98.1%
8 | CC(=O)O[C@@]12CO[C@@H]1C[C@H](O)[C@@]1(C)C(=O)[C@H](O)C3=C(C)[C@@H](OC(=O)[C@H](O)[C@@H](NC(=O)OC(C)(C)C)c4ccccc4)C[C@@](O)([C@@H](OC(=O)c4ccccc4)[C@H]21)C3(C)C [Docetaxel] + c1cc(-c2cnn3cc(-c4ccc(OCCN5CCCCC5)cc4)cnc23)ccn1 [Dorsomorphin] (first compound 0.0001 µM, partner dose 0.4 µM) | 475% | 157% | 346% | 624% | 461% | 140% | 114% | 35%
9 | CS(=O)(=O)c1ccc(C(=O)Nc2ccc(Cl)c(-c3ccccn3)c2)c(Cl)c1 [vismodegib] + COC(=O)c1sccc1S(=O)(=O)Nc1ccc(Nc2ccccc2)cc1OC [GSK0660] (first compound 1 µM, partner dose 1 µM) | 90% | 34.7% | 58.5% | 41.1% | 58% | 28.5% | 39.6% | 33.5%
10 | C[C@@H](N)c1ccc(C(=O)Nc2ccnc3[nH]ccc23)cc1 + O=C1NC(=O)/C(=C/c2ccc(-c3ccc(F)cc3O)o2)S1 [AS252424] (first compound 0.4 µM, partner dose 1 µM) | 43.8% | 190% | 78.1% | 94.1% | 57.4% | 70% | 66.1% | 386%
11 | NC1(c2ccc(-c3nc4ccn5c(=O)[nH]nc5c4cc3-c3ccccc3)cc2)CCC1 + O=c1cc(-c2cccc3c2Sc2ccccc2S3)oc(N2CCOCC2)c1 [KU55933] (first compound 0.4 µM, partner dose 1 µM) | 134% | 102% | 154% | 44.6% | 89.6% | 104% | 61.8% | 136%
12 | CCN(CC)CCNC(=O)c1c(C)[nH]c(/C=C2\C(=O)Nc3ccc(F)cc32)c1C [sunitinib] + Oc1cc(-c2nc(-c3ccccc3)[nH]c2-c2ccncc2)ccc1Cl [L779450] (first compound 0.4 µM, partner dose 0.2 µM) | 71.8% | 162% | 58.2% | 81.4% | 89.1% | 89.1% | 262% | 93.1%
13 | CS(=O)(=O)c1ccc(C(=O)Nc2ccc(Cl)c(-c3ccccn3)c2)c(Cl)c1 [vismodegib] + O=S(=O)(c1ccccc1)N(CC(F)(F)F)c1ccc(C(O)(C(F)(F)F)C(F)(F)F)cc1 [T0901317] (first compound 1 µM, partner dose 1.4 µM) | 80.7% | 164% | 115% | 142% | 71.9% | 41.9% | 73.6% | 59.6%
14 | Cn1sc(=O)n(Cc2ccccc2)c1=O + O=C(O)C(=O)Nc1sc2c(c1C(=O)O)CCNC2 [TCS401] (first compound 0.4 µM, partner dose 1.66667 µM) | 169% | 46.8% | 82.6% | 101% | 88.8% | 129% | 32.9% | 93.3%
15 | C[C@]1(O)C[C@@H](c2nc(-c3ccc4ccc(-c5ccccc5)nc4c3)c3c(N)nccn32)C1 + c1cc(-c2cnn3cc(-c4ccc(OCCN5CCCCC5)cc4)cnc23)ccn1 [Dorsomorphin] (first compound 0.4 µM, partner dose 0.4 µM) | 57.2% | 33% | 61.1% | 74.2% | 147% | 122% | 403% | 287%
16 | Cn1sc(=O)n(Cc2ccccc2)c1=O + c1cc(-c2cnn3cc(-c4ccc(OCCN5CCCCC5)cc4)cnc23)ccn1 [Dorsomorphin] (first compound 0.4 µM, partner dose 0.4 µM) | 119% | 80% | 147% | 111% | 139% | 58.3% | 73.9% | 61.5%
17 | COc1ccc(C2=N[C@@H](c3ccc(Cl)cc3)[C@@H](c3ccc(Cl)cc3)N2C(=O)N2CCNC(=O)C2)c(OC(C)C)c1 [Nutlin-3] + CC(C)CCN1c2nc(Nc3cc(F)c(O)c(F)c3)ncc2N(C)C(=O)C1C [BID1870] (first compound 0.1 µM, partner dose 0.2 µM) | 141% | 124% | 128% | 71.4% | 49.3% | 59.4% | 80.1% | 242%
18 | NC1(c2ccc(-c3nc4ccn5c(=O)[nH]nc5c4cc3-c3ccccc3)cc2)CCC1 + COc1cc(N2CCC(N3CCN(C)CC3)CC2)ccc1Nc1ncc(Cl)c(Nc2ccccc2S(=O)(=O)C(C)C)n1 [NVP-TAE684] (first compound 0.4 µM, partner dose 0.08 µM) | 246% | 49.5% | 186% | 140% | 93.3% | 54.1% | 77.7% | 100%
19 | C[C@@H](N)c1ccc(C(=O)Nc2ccnc3[nH]ccc23)cc1 + O=C(O)C(=O)Nc1sc2c(c1C(=O)O)CCNC2 [TCS401] (first compound 0.4 µM, partner dose 1.66667 µM) | 69.1% | 68.9% | 22.9% | 169% | 58.9% | 146% | 133% | 160%
20 | Cn1cnc2c(F)c(Nc3ccc(Br)cc3Cl)c(C(=O)NOCCO)cc21 [selumetinib] + CC(C)CCN1c2nc(Nc3cc(F)c(O)c(F)c3)ncc2N(C)C(=O)C1C [BID1870] (first compound 0.015 µM, partner dose 0.2 µM) | 231% | 21% | 49.9% | 129% | 77.6% | 57% | 220% | 74.5%
21 | C[C@]1(O)C[C@@H](c2nc(-c3ccc4ccc(-c5ccccc5)nc4c3)c3c(N)nccn32)C1 + Oc1nc(-c2ccc(C(F)(F)F)cc2)nc2c1CSCC2 [XAV939] (first compound 0.4 µM, partner dose 2 µM) | 104% | 136% | 106% | 148% | 99.4% | 107% | 106% | 36.2%
22 | CCN(CC)CCNC(=O)c1c(C)[nH]c(/C=C2\C(=O)Nc3ccc(F)cc32)c1C [sunitinib] + CCc1ccc(CCOc2ccc(CC3SC(=O)NC3=O)cc2)nc1 [pioglitazone] (first compound 0.4 µM, partner dose 2 µM) | 148% | 87.1% | 13.6% | 172% | 58.1% | 55% | 53.1% | 35.7%
23 | NC1(c2ccc(-c3nc4ccn5c(=O)[nH]nc5c4cc3-c3ccccc3)cc2)CCC1 + CCN(CC)CCCCNc1ncc2cc(-c3cc(OC)cc(OC)c3)c(NC(=O)NC(C)(C)C)nc2n1 [PD173074] (first compound 0.4 µM, partner dose 0.1 µM) | 140% | 118% | 129% | 115% | 100% | 97.4% | 52.5% | 211%

Quoted from the entries so far (2 entries):
Row | SMILES | cleaved PARP positive nuclei fraction (COLO792) | cleaved PARP positive nuclei fraction (COLO800) | cleaved PARP positive nuclei fraction (COLO829) | cleaved PARP positive nuclei fraction (G361) | cleaved PARP positive nuclei fraction (IPC-298) | cleaved PARP positive nuclei fraction (IST-MEL1) | cleaved PARP positive nuclei fraction (LB2518-MEL) | cleaved PARP positive nuclei fraction (LOXIMVI)
18 | NC1(c2ccc(-c3nc4ccn5c(=O)[nH]nc5c4cc3-c3ccccc3)cc2)CCC1 + COc1cc(N2CCC(N3CCN(C)CC3)CC2)ccc1Nc1ncc(Cl)c(Nc2ccccc2S(=O)(=O)C(C)C)n1 [NVP-TAE684] (first compound 0.4 µM, partner dose 0.08 µM) | 246% | 49.5% | 186% | 140% | 93.3% | 54.1% | 77.7% | 100%
19 | C[C@@H](N)c1ccc(C(=O)Nc2ccnc3[nH]ccc23)cc1 + O=C(O)C(=O)Nc1sc2c(c1C(=O)O)CCNC2 [TCS401] (first compound 0.4 µM, partner dose 1.66667 µM) | 69.1% | 68.9% | 22.9% | 169% | 58.9% | 146% | 133% | 160%
